Measurements from PubChem BioAssay AID248 (DTP/NCI, 2004).
The list does not hold the whole screen: it is rich in T/C values a quarter to a half above the control, in often repeated tests (any T/C) and in doses without a T/C. Other doses and runs of a compound stand elsewhere. T/C: endpoint of the treated group in % of that of the vehicle group. Some doses have a count of surviving animals in place of a T/C: the source files T/C as zero there, which appears to mark a toxic dose or a test without result, not a measured value. Some doses without a T/C left all or most animals alive at the check, yet need not have been tolerated: survival well below the control is almost never listed, so the zero probably covers shortened survival too. Survivors were counted at the toxicity check, usually on the fifth day, unless a day is given; later deaths do not show. Schedule codes are those of the source, taken here to give the interval after Q, in days (D) or hours (H), and the number of doses after X. Some doses were run more than once; the values are given in rising order. For survival time, this PubChem deposit counts one and a half times the control or more as active, and values a quarter to a half above the control carry no call in these data; other NCI protocols may use other cut-offs. Some T/C values are followed by the survivors on the day toxicity was checked, most often the fifth; where none is given, no animal had died by that day.

Tested on: L1210 leukemia ip in BDF1 mice, survival T/C
Assay: NCI In Vivo Anticancer Drug Screen. Data for tumor model L1210 Leukemia (intraperitoneal) in B6D2F1 (BDF1) mice
Details: T/C endpoint: mean survival time, higher T/C = longer survival
[1] = dose: 6.25 mg/kg/injection, schedule: Q01DX009 (ip), vehicle: saline
[2] = dose: 12.5 mg/kg/injection, schedule: Q01DX009 (ip), vehicle: saline
[3] = dose: 200.0 mg/kg/injection, schedule: Q01DX009 (ip), vehicle: saline
[4] = dose: 400.0 mg/kg/injection, schedule: Q01DX009 (ip), vehicle: saline
[5] = dose: 400.0 mg/kg/injection, schedule: Q01DX009 (ip), vehicle: Klucel (hydroxypropylcellulose) (HPC)
[6] = dose: 400.0 mg/kg/injection, schedule: Q04DX003 (ip), vehicle: Klucel (hydroxypropylcellulose) (HPC)
[7] = dose: 400.0 mg/kg/injection, schedule: Q04DX003 (ip), vehicle: saline
[8] = dose: 400.0 mg/kg/injection, schedule: Q04DX003 (ip), vehicle: saline with Tween-80
[9] = dose: 200.0 mg/kg/injection, schedule: Q01DX009 (ip), vehicle: Klucel (hydroxypropylcellulose) (HPC)

For `CCCC[As](=O)(O)C(C)C`, the T/C (dose: 3.12 mg/kg/injection, schedule: Q01DX009 (ip), vehicle: saline) was 129 % of control, the T/C [1] was 110, 111, 122 % of control [2 of 3 alive] and the survivor count [1] was 1 of 3. The T/C [2] was 105, 110, 114 % of control [2 of 3 alive], the survivor count [2] was 1 of 3 and the survivor count (dose: 25.0 mg/kg/injection, schedule: Q01DX009 (ip), vehicle: saline) was 1 of 3. The T/C (dose: 25.0 mg/kg/injection, schedule: Q04DX002 (ip), vehicle: saline) was 125 % of control, the survivor count (dose: 50.0 mg/kg/injection, schedule: Q01DX009 (ip), vehicle: saline) was 0 of 3 and the survivor count (dose: 100.0 mg/kg/injection, schedule: Q01DX001 (ip), vehicle: saline) was 3 of 6. The survivor count (dose: 100.0 mg/kg/injection, schedule: Q01DX009 (ip), vehicle: saline) was 0 of 3 and 0 of 6, the survivor count [3] was 0 of 6 and the survivor count [4] was 0 of 6.

In the case of `CNC(=O)Nc1cccc(C(F)(F)F)c1`, the survivor count [5] is reported as 6 of 6.

For `CCCCCCCCCCCCC1CC(=O)OC1=O` (centres undefined), the survivor count [5] was 2 of 6 and the survivor count [6] was 0 of 6.

`OC1(c2ccccc2)c2cscc2C(O)(c2ccccc2)c2c(Cl)sc(Cl)c21` (centres undefined) was tested, and the survivor count (dose: 200.0 mg/kg/injection, schedule: Q01DX001 (ip), vehicle: saline with Tween-80) was 3 of 3.

`CC(=O)Nc1c(C)c(NC(C)=O)c(C)c(NC(C)=O)c1C` was tested, and the survivor count (dose: 150.0 mg/kg/injection, schedule: Q01DX009 (ip), vehicle: Klucel (hydroxypropylcellulose) (HPC)) was 5 of 6 and the survivor count (dose: 300.0 mg/kg/injection, schedule: Q01DX009 (ip), vehicle: Klucel (hydroxypropylcellulose) (HPC)) was 1 of 6.

With `CCCCNP(=O)(OCC)OCC` the survivor count [4] was 0 of 6 and the survivor count [7] was 2 of 6.

With `C[N+](C)(C)Cn1nnc2ccccc21` the survivor count (dose: 300.0 mg/kg/injection, schedule: Q01DX001 (ip), vehicle: saline) was 0 of 6.

With `O=C(O)C1CCCCC1C(=O)Nc1ccc(Cl)cc1` (centres undefined) the survivor count [8] was 2 of 6.

`N#Cc1c(Cl)nsc1Cl` was tested, and the survivor count [5] was 3 of 6.

In the case of `S=c1nc2[nH]c3ccccc3c2n[nH]1`, the survivor count [8] is reported as 6 of 6.

For `NNC(=O)CNc1ccc(F)cc1F`, the survivor count (dose: 400.0 mg/kg/injection, schedule: Q04DX002 (ip), vehicle: Klucel (hydroxypropylcellulose) (HPC)) was 0 of 3.

In the case of `CCCCC(=O)N1C(C)CCCC1C` (centres undefined), the survivor count (dose: 100.0 mg/kg/injection, schedule: Q04DX002 (ip), vehicle: saline) is reported as 3 of 3 and the survivor count (dose: 200.0 mg/kg/injection, schedule: Q04DX002 (ip), vehicle: saline) is reported as 3 of 3.

For `O=NN(CCCl)C(=O)Nc1ccc(CC(=O)O)cc1`, the survivor count (dose: 40.0 mg/kg/injection, schedule: Q01DX001 (ip), vehicle: carboxymethylcellulose (CMC)) was 5 of 6, the survivor count (dose: 60.0 mg/kg/injection, schedule: Q01DX001 (ip), vehicle: carboxymethylcellulose (CMC)) was 4 of 6 and the survivor count (dose: 93.0 mg/kg/injection, schedule: Q01DX001 (ip), vehicle: carboxymethylcellulose (CMC)) was 0 of 6. For the same molecule, the survivor count (dose: 187.0 mg/kg/injection, schedule: Q01DX001 (ip), vehicle: carboxymethylcellulose (CMC)) was 0 of 6 and the survivor count (dose: 375.0 mg/kg/injection, schedule: Q01DX001 (ip), vehicle: carboxymethylcellulose (CMC)) was 0 of 6.

For `[N-]=[N+]=C1C(=O)NN=C1c1ccccc1`, the survivor count [9] was 0 of 6, the survivor count (dose: 200.0 mg/kg/injection, schedule: Q04DX003 (ip), vehicle: Klucel (hydroxypropylcellulose) (HPC)) was 5 of 6 and 6 of 6 and the survivor count [6] was 0 of 6 and 2 of 6.

For `Cc1c2ccccc2c(C)c2c1cc(O)c1ccccc12`, the survivor count [9] was 0 of 3.

`OCC1OC(n2ccc3c2ncn2ccnc32)C(O)C1O` (centres undefined) was tested, and the survivor count (dose: 200.0 mg/kg/injection, schedule: Q01DX005 (ip), vehicle: saline) was 2 of 6 and the survivor count [3] was 5 of 6.

`NCCOc1ccc([N+](=O)[O-])cc1Cl` was tested, and the survivor count [7] was 2 of 6.
